Some of the results follow. These are raw signals, not scaled to a control.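 First-pass screen: polymyxin B was added at a level that permeabilizes the Salmonella outer membrane while sparing the inner membrane. DMSO wells, with and without polymyxin B, defined maximum growth. Because plates differed from one another, each plate's data were ranked separately and the compounds with the lowest OD600 were carried forward as hits.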
Test system: Salmonella enterica serovar Typhimurium SL1344
Assay: bacterial growth OD600 after 18 h with compound and polymyxin B; higher = more bacterial growth (less inhibition)
Conditions: 50 µM, Mueller-Hinton broth

Compound | bacterial growth OD600 (polymyxin B 0.75 µg/mL) | bacterial growth OD600 (polymyxin B 1 µg/mL)
Cc1csc(SCC(=O)N2CCc3c(cnc(C)c3CNS(=O)(=O)c3cccs3)C2)n1 | 0.78 | –
COc1cccc(OCc2cc(C(=O)N(C)Cc3nc4cc(Cl)ccc4[nH]3)no2)c1 | – | 0.023
O=C(CSc1ccccc1)NC1CCCN(c2ccc(C(F)(F)F)cn2)C1 (stereo not given) | – | 0.839
COc1ccccc1CNC(=O)c1c(OC)cc(=O)n2c1CCN(Cc1ccc3c(c1)CCO3)CC2 | 0.847 | –
CN(C)C1(C(=O)N[C@@H](Cc2ccccc2)C(N)=O)Cc2ccccc2C1 | 0.778 | –
C=CCS(=O)(=O)N1CCC(C2CCN(CC(C)C)CC2)C1 (stereo not given) | 0.897 | –
COC(=O)c1ccccc1-c1cc(C)cc2c1OC(CNC(=O)C(C)c1n[nH]c(=O)c3ccccc13)C2 (stereo not given) | 0.648 | –
O=C(NC1CC(=O)N(CCc2ccc(F)cc2)C1)C1CCCCC1 (stereo not given) | – | 1.16
Cc1cccc(-n2ncc3c2CCCC3NC(=O)Cc2c(C)noc2C)c1C (stereo not given) | – | 0.707
c1csc(CN2CCc3[nH]nc(-c4ccc5c(c4)OCO5)c3C2)n1 | 0.825 | –
COc1cc(CN2CCN(Cc3ccc4c(c3)OCCO4)CC2CCO)cc(OC)c1 (stereo not given) | – | 0.732
COc1ccc(CN2Cc3ccccc3OC(c3ccccc3F)C2)c(OC)c1OC (stereo not given) | 0.342 | –
O=C(Nc1ccc(Oc2cccnc2)cc1)C1CCCCN1Cc1ccsc1 (stereo not given) | – | 0.74
COCCN1C(=O)CC(CC(=O)N(C)Cc2n[nH]c3c2CCCC3)(c2ccccc2OC)C1=O (stereo not given) | 0.803 | –
COc1ccc(-n2ccnc2CN2CCCC(N3CCOCC3)C2)cc1 (stereo not given) | – | 0.898
COc1ccccc1NC(=O)Nc1ccnn1C1CCN(Cc2cnn(C(C)C)c2)CC1 | 0.887 | –
COCCCN1C(=O)CC(CC(=O)NCc2cnn(-c3ccccc3)n2)(c2ccccc2C)C1=O (stereo not given) | 0.662 | –
COc1cc(CN2Cc3ccccc3OC(c3ccccc3OC)C2)ccc1O (stereo not given) | 0.014 | –
Cc1ccc(C(=O)N2CCC(CCC(=O)N3CCC(Cc4ccccc4)CC3)CC2)cn1 | – | 0.883
COc1cc(CC2(CCC(=O)NCCc3ccccc3C(F)(F)F)CCC(=O)N2)ccc1F (stereo not given) | 0.789 | –
CCN(CCn1cccn1)C(=O)c1ccc2oc(CCc3ccccc3)nc2c1 | – | 0.756
Cc1cnc(C)c(N2CCN(C(=O)CCC3(Cc4ccc(Cl)cc4)CCC(=O)N3)CC2)n1 (stereo not given) | 1.01 | –
Cn1cc(CN2CCCC(Nc3ccccc3)C2)cn1 (stereo not given) | – | 1.22
c1cnc(Oc2ccc(CNCc3cccnc3N3CCOCC3)cc2)nc1 | – | 0.794
O=C1CCCN1CCCC(=O)N1CC[C@@H](N2CCN(c3ccccc3F)CC2)[C@H](O)C1 | – | 0.89
COC(=O)c1cc(CNC(=O)c2ccccn2)cc(NC(=O)/C=C/c2cccc(F)c2)c1 | 0.478 | –
COc1ccc(CC(=O)NCC2CCCN(Cc3ccc(F)c(OC)c3)C2)cc1 (stereo not given) | – | 0.962
O=C(CC1(c2ccccc2F)CC(=O)N(C2CCCC2)C1=O)N(CC1CCC1)CC1CCCO1 (stereo not given) | 0 | –
C=CCC(O)(CC=C)C(C)NC(=O)CCC1(Cc2ccc(OC)cc2F)CCC(=O)N1 (stereo not given) | 0.881 | –
CCN1CCCC1CNC(=O)CCC1CCN(Cc2nc3c(s2)CCCC3)CC1 (stereo not given) | – | 1.06

A draw from above in order of molecular weight, largest number first:
Compound | bacterial growth OD600 (polymyxin B 0.75 µg/mL) | bacterial growth OD600 (polymyxin B 1 µg/mL)
Cc1csc(SCC(=O)N2CCc3c(cnc(C)c3CNS(=O)(=O)c3cccs3)C2)n1 | 0.78 | –
COCCN1C(=O)CC(CC(=O)N(C)Cc2n[nH]c3c2CCCC3)(c2ccccc2OC)C1=O (stereo not given) | 0.803 | –
O=C(Nc1ccc(Oc2cccnc2)cc1)C1CCCCN1Cc1ccsc1 (stereo not given) | – | 0.74

Source: the supplement of paper PMC12889115
